Data as given in PubChem BioAssay AID602196 (INSERM, 2012).

Test: 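Modifiers of cisplatin sensitivity in A549 cells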
Cells: human A549 lung cancer cells
Reagents: siRNA pair against human genes
Time to read-out: 48 h transfection before cisplatin; time from cisplatin to read-out not stated
Treatment: cisplatin at a dose killing half of control-siRNA cells; exact dose and duration not given
Measurement: 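Cisplatin cell death as a shift from the 50% death seen with control siRNA; siRNAs toxic or growth-blocking alone scored 0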
Direction: two-siRNA summed score (-2 to +2): higher = both siRNAs protect from cisplatin killing; -2 means both sensitise
Call rule: 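Each siRNA scores 0 if harmful alone by LDH or WST-1, otherwise +1 if it reduces and -1 if it increases cisplatin killing; a gene is active when both siRNAs agree (sum +2 or -2)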
Calls: active = both siRNAs shift cisplatin killing the same way; inactive = no consistent shift, or siRNA harmful alone
Here is an unselected part of about 23,000 reagents. 455 of them (2%) count as active. 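Active includes both protection and sensitisation; some change values fall well beyond the stated -50 to +50 range.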 Not all columns of the deposit are shown. Reagent sequences are not shown. The record does not give: the amount of reagent.

gene	two-siRNA summed score (-2 to +2)	Outcome
SLC2A8	0	inactive
SYCP3	0	inactive
DNAH11	1	inactive
ACKR3	1	inactive
ADAT1	1	inactive
LOC440241	1	inactive
THAP4	0	inactive
ANKFN1	1	inactive
AMPD1	2	active
LOC390358	0	inactive
LOC401078	0	inactive
HOXB13	0	inactive
SHC1	0	inactive
BRIP1	1	inactive
BDH2	1	inactive
LOC402689	0	inactive
LOC402059	0	inactive
NUP155	0	inactive
IDE	0	inactive
ACOT8	0	inactive
LOC440203	0	inactive
PSEN2	0	inactive
SERAC1	1	inactive
UST	0	inactive
CEP295	0	inactive
SMIM17	0	inactive
LOC442616	0	inactive
GRM5P1	0	inactive
LOC388458	1	inactive
LOC389310	0	inactive
LOC441699	0	inactive
LOC441610	0	inactive
ZSWIM3	0	inactive
KCNS2	0	inactive
LOC255809	0	inactive
SPIDR	-1	inactive
LOC643406	0	inactive
UBE2Q1	-1	inactive
ZNF154	0	inactive
TMEM63C	0	inactive
FBXW2	0	inactive
KRT10	1	inactive
ZDHHC9	-2	active
ZG16	0	inactive
LOC388097	0	inactive
LMO4	0	inactive
LOC388798	0	inactive
EPN3	0	inactive
CPQ	0	inactive
H2BC8	0	inactive
SPANXC	0	inactive
KIF14	0	inactive
LOC389432	1	inactive
LOC346157	0	inactive
JOSD2	0	inactive
OLA1	0	inactive
SLC5A5	1	inactive
ANXA8L1	0	inactive
RNASEH1	0	inactive
CLSTN1	0	inactive
LOC440806	1	inactive
YWHAE	0	inactive
METAP2	0	inactive
UNC5C	0	inactive
ATP8A1	0	inactive
GGA1	-1	inactive
LOC441108	1	inactive
ZNF321P	1	inactive
NBPF4	0	inactive
NREP	0	inactive
APRG1	0	inactive
DNAJC18	2	active
CD276	0	inactive
